Measured values: PubChem BioAssay AID504834 (National Center for Advancing Translational Sciences (NCATS), 2011)
The whole screen tested about 320,000 compounds, of which about 22,000 (6.9%) were called active. The shares of active, inactive and inconclusive entries below differ from those in the screen. Calls follow the shape of the dose curve; as a rule, active = well fitted inhibition curve with a large enough effect; inconclusive = small, poorly fitted or top-dose-only effect, or another doubt; inactive = no such curve, though single readings can be large or run the other way. Where the call is inconclusive, the potency comes from a doubtful curve fit.

test: Primary qHTS for delayed death inhibitors of the malarial parasite plastid, 96 hour incubation; conditions: P. falciparum luciferase reporter growth; series mostly up to 28.7 µM; activity change, negative = inhibition: at the top concentration
Summary of the method: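 Erythrocytes infected with luciferase-expressing P. falciparum were dispensed at 2% hematocrit and 0.05% parasitemia (final), then incubated with compounds 96 hours at 37 C in 5% CO2. Luminescence after detection reagent addition reported growth.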
% is scaled to controls: 0 for no effect and ±100 for the full control effect; potency is read from the fitted curve at half-maximal effect.

Structure (SMILES)	Potency	activity change, negative = inhibition
CC(C)c1onc(C(=O)N2CCN(Cc3ccccc3)CC2)c1[N+](=O)[O-]	inconclusive: 18.5 µM [inhibitor, partial curve, poor fit]	–
Cn1nc(C(F)(F)F)c2cc(C(=O)Nc3ccc(F)cc3F)sc21	–	inactive: -22.5%
CCC(CC)N1CCN(C(=O)Cc2ccccc2)CC1	inconclusive: 9.28 µM [inhibitor, partial curve, poor fit]	–
CC(=O)Nc1ccc(/C=C(\C#N)C(=O)NC2CCCCC2C)cc1 (stereo not given)	–	inactive: -11.4%
CCN(CC)S(=O)(=O)c1ccc2c(c1)nc(CCC(=O)OCC(=O)Nc1cc(Cl)cc(Cl)c1)n2C	–	inactive: 5.08%
Nc1nc2c(s1)CC(c1ccccc1)CC2 (stereo not given)	active: 5.22 µM	–
C/C=C/C(=O)OCC(=O)Nc1ccc(SC(F)F)cc1	–	inactive: 11.6%
CCOc1ccc(NC(=O)c2sc3nc4n(c(=O)c3c2C)CCC4)cc1	inconclusive: 3.7 µM [inhibitor, full curve]	–
Cc1ccc(S(=O)(=O)Nc2ccccc2C(=O)N2CCCCC2C)c(C)c1NS(C)(=O)=O (stereo not given)	–	inactive: -3.62%
CCN1CCC2(CC1)NC(=O)c1ccccc1O2	inconclusive: 16.5 µM [inhibitor, single point]	–
CCOC(=O)/C(=C/c1c2ccccc2cc2ccccc12)NC(=O)c1ccccc1	inconclusive: 1.47 µM [inhibitor, full curve, poor fit]	–
Cc1cccc(N(CC(=O)NCC2CCCO2)C(=O)CCC(=O)Nc2nccs2)c1 (stereo not given)	–	inactive: -5.05%
CSCCC(NC(=O)c1ccccc1)C(=O)N(C)CC(=O)Nc1ccc(N2CCOCC2)cc1 (stereo not given)	inconclusive: 13.1 µM [inhibitor, single point]	–
COc1ccccc1Nc1nc(N)nc(CSc2nccc(C)n2)n1	active: 0.928 µM	–
Cn1nc(-c2ccc(C(=O)Nc3cccc(Cl)c3)cc2)c2ccccc2c1=O	active: 3.29 µM	–
COCCCN1CN(S(=O)(=O)c2cccs2)c2nc3ccccc3nc21	inconclusive: 8.28 µM [inhibitor, partial curve, poor fit]	–
COc1ccc(NC(=O)c2cc(C)n(Cc3cccs3)c2C)cc1	–	inactive: 453%
CCN1CCN(Cc2ccc(NC(=O)c3cc(NC(=O)N4CCNC4=O)cc(OC)c3)cc2C(F)(F)F)CC1	active: 4.15 µM	–
Cc1ccccc1C1CC(c2ccccc2)Nc2ncnn21 (stereo not given)	inconclusive: 13.1 µM [inhibitor, partial curve, poor fit]	–
COc1cccc(CC2(CO)CCCN(Cc3cn[nH]c3-c3ccc(F)cc3)C2)c1 (stereo not given)	–	inactive: 256%
CC(=O)N/C(=C\c1ccc(Cl)cc1)C(=O)O	–	inactive: 4.95%
CC12CC(c3ccccc3O1)N(C(=O)c1ccco1)C(=O)N2c1ccccc1 (stereo not given)	inconclusive: 10.4 µM [inhibitor, single point]	–
FC(F)(F)c1ccc(CN2C[C@@H]3C(c4ccccc4)C4(c5cccnc5)CC3(C4)[C@H]2c2ccccc2)cc1 (stereo not given in full)	active: 3.29 µM	–
CCCCNC(=O)Nc1cc(C(F)(F)F)c[nH]c1=O	inconclusive: 14.7 µM [inhibitor, partial curve]	–

Gathered by group: the entries above containing an aryl methoxy group
Structure (SMILES)	Potency	activity change, negative = inhibition
COc1ccccc1Nc1nc(N)nc(CSc2nccc(C)n2)n1	active: 0.928 µM	–
COc1ccc(NC(=O)c2cc(C)n(Cc3cccs3)c2C)cc1	–	inactive: 453%
CCN1CCN(Cc2ccc(NC(=O)c3cc(NC(=O)N4CCNC4=O)cc(OC)c3)cc2C(F)(F)F)CC1	active: 4.15 µM	–
COc1cccc(CC2(CO)CCCN(Cc3cn[nH]c3-c3ccc(F)cc3)C2)c1 (stereo not given)	–	inactive: 256%

The listing continues:

Structure (SMILES)	Potency	activity change, negative = inhibition
CCN(C(=O)c1ccc(Cl)cc1[N+](=O)[O-])c1ccccc1C	inconclusive: 18.5 µM [inhibitor, single point]	–
C[C@]12CCC(O)CC1=CCC1C2CC[C@]2(C)/C(=N\NC(N)=S)CCC12 (stereo not given in full)	inconclusive: 18.5 µM [inhibitor, single point]	–
Cc1ccccc1COC(=O)c1nn(-c2ccccc2)nc1N	inconclusive: 18.5 µM [inhibitor, single point]	–
COC(=O)C1=C(C)N(C)C(C)=C(C(=O)OC)C1c1ccccn1	inconclusive: 0.233 µM [inhibitor, partial curve, poor fit]	–
Brc1ccc(-c2noc(COc3ccc4c(c3)CCC4)n2)o1	inconclusive: 20.8 µM [inhibitor, partial curve, poor fit]	–
O=C(NCc1ccco1)C1CCN(S(=O)(=O)N2CCOCC2)CC1	inconclusive: 4.65 µM [inhibitor, partial curve, poor fit]	–
CC(C)(C)NC(=O)C(c1ccncc1)N(CC1CCCO1)C(=O)Cn1nnc(-c2ccc(F)cc2)n1 (stereo not given)	inconclusive: 6.57 µM [inhibitor, partial curve, poor fit]	–
CCCCC1N2CC3([N+](=O)[O-])CN1CC([N+](=O)[O-])(C2)C3(C)C (stereo not given)	inconclusive: 13.1 µM [inhibitor, single point]	–
CC(=O)Nc1cccc(Oc2nc(C(F)(F)F)nc3ccccc23)c1	–	inactive: 1.93%
CC(O)c1cccc(NC(=O)CC(c2ccccc2)c2ccccc2)c1 (stereo not given)	inconclusive: 6.57 µM [inhibitor, partial curve]	–
COc1ccccc1N1CCN(C(=O)c2n[nH]c3ccccc23)CC1	inconclusive: 1.85 µM [inhibitor, full curve, poor fit]	–
CCCS(=O)(=O)n1nc(-c2ccc(OC)cc2OC)cc1N	inconclusive: 5.22 µM [inhibitor, partial curve]	–
CC(=O)c1ccccc1NC(=O)Cn1c(=O)cnc2ccccc21	inconclusive: 20.8 µM [inhibitor, single point]	–
O=C(/C=C/c1ccccc1[N+](=O)[O-])NCCCN1CCCC1=O	–	inactive: -12.9%
COc1ccc(-c2noc(CCC(=O)NCCCN3CCN(c4ccccc4F)CC3)n2)cc1	–	inactive: 1.49%
CCOc1ccc(NC(=S)N(CCCN2CCOCC2)Cc2cn(C)c3ccccc23)cc1	inconclusive: 11.7 µM [inhibitor, single point]	–
COc1ccccc1NC(=O)c1cc(Cl)nc2ccccc12	inconclusive: 18.5 µM [inhibitor, single point]	–
O=C(c1ccc(CS(=O)Cc2ccc(Cl)cc2)o1)N1CCN(c2ccccn2)CC1 (stereo not given)	active: 10.4 µM	–
CC(C(=O)Nc1ccc(O)cc1)c1cccc(C(=O)c2ccccc2)c1 (stereo not given)	–	inactive: 11.9%
O=C(COc1ccc([N+](=O)[O-])cc1)Nc1cccc(C(=O)Nc2ccccc2C(=O)O)c1	inconclusive: 11.7 µM [inhibitor, partial curve, poor fit]	–
N#CC1=C(O)C(c2ccccc2)n2c1nc(=O)c1ccccc12 (stereo not given)	inconclusive: 0.415 µM [inhibitor, full curve, poor fit]	–
Cc1ccccc1COC[C@H](CC(C)C)N1CCN(C(=O)c2cccc(C(F)(F)F)c2)CCC1=O	inconclusive: 13.1 µM [inhibitor, single point]	–
COc1ccc(Cc2nn3c(Cn4nnc5ccccc54)nnc3s2)cc1	inconclusive: 18.5 µM [inhibitor, single point]	–
COCCOC(=O)c1[nH]c2c(c1C)C(=O)CC(c1ccco1)C2 (stereo not given)	–	inactive: 37.7%

Structure (SMILES)	Potency	activity change, negative = inhibition
Cc1cc(=O)oc2cc(NC(=O)COc3cccc(C(F)(F)F)c3)ccc12	inconclusive: 20.8 µM [inhibitor, partial curve, poor fit]	–
CCN(CC)S(=O)(=O)c1csc(C(=O)OCC(=O)c2ccccc2)c1	inconclusive: 9.28 µM [inhibitor, single point]	–
N#CC(C#N)=C/C(C#N)=C(/N)N1CCN(c2ccc(Cl)cc2)CC1	inconclusive: 4.15 µM [inhibitor, single point]	–
CCn1nc(C)c(CNCc2cn[nH]c2-c2cc3ccccc3o2)c1C	–	inactive: 1.09%
COCCN(C(=O)c1cc2c(s1)CCC2)c1c(N)n(CC(C)C)c(=O)[nH]c1=O	–	inactive: -22.2%
Cc1ccccc1NS(=O)(=O)c1ccc(C(=O)NCC(c2ccccc2)N(C)C)cc1 (stereo not given)	inconclusive: 18.5 µM [inhibitor, single point]	–
Cc1ccc(/C=N/NC(=O)Cn2nnc(N)n2)o1	–	inactive: 18.6%
CCCCNC(=S)N/N=C/c1sccc1C	inconclusive: 0.165 µM [inhibitor, partial curve, poor fit]	–
O=C(CSc1nnc(-c2ccc(C(F)(F)F)cn2)o1)Nc1ccccc1Cl	–	inactive: 147%
Cc1nonc1CC(=O)NC1CCCc2c1cnn2-c1ccc(F)cc1F (stereo not given)	–	inactive: 14.9%
O=C(C1COc2ccccc2O1)N1CCN(c2ccccc2F)CC1 (stereo not given)	inconclusive: 4.65 µM [inhibitor, partial curve, poor fit]	–
NC(=O)C1CCN(c2nc(-c3ccc(N4CCCCC4)nc3)cs2)CC1	inconclusive: 14.7 µM [inhibitor, single point]	–
COc1ccc(/C=N/N=C2\SC(CC(=O)O)C(=O)N2c2ccccc2)cc1 (stereo not given)	active: 1.65 µM	–
CCCn1c(N)c(N(CCOC)C(=O)CSc2cc(C)c3cccc(C)c3n2)c(=O)[nH]c1=O	–	inactive: -28.2%
COc1ccc(CSCC(=O)Nc2ccc(S(=O)(=O)N3CCCCCC3)cc2)cc1	inconclusive: 18.5 µM [inhibitor, single point]	–
Cc1cc(=O)oc2c(C(=O)/C=C\c3cccs3)c(O)ccc12	active: 13.1 µM	–
CCc1cccc(CC)c1NC(=O)C1SC(=Nc2ccccc2C)C(c2nc3ccccc3s2)=C1N (stereo not given)	active: 7.38 µM	–
Cc1ccc(S(=O)(=O)C2CCOC2=O)cc1 (stereo not given)	inconclusive: 7.38 µM [inhibitor, partial curve, poor fit]	–
COc1ccc(Cn2nnnc2C(c2ccccc2OC)N2CCC(C(N)=O)CC2)cc1 (stereo not given)	inconclusive: 13.1 µM [inhibitor, single point]	–
COc1ccc(CN(CC(=O)NCc2ccc(F)cc2)C(=O)CCC(=O)Nc2nccs2)cc1	active: 4.65 µM	–
COCCn1c(=NC(=O)C2COc3ccccc3O2)sc2cc(S(N)(=O)=O)ccc21 (stereo not given)	inconclusive: 18.5 µM [inhibitor, single point]	–
Cc1nc2ccccn2c1C(=O)N/N=C/c1cc(C)n(-c2ccc(Br)cc2)c1C	inconclusive: 18.5 µM [inhibitor, single point]	–
